This is an account of results in the supplement of paper PMC6411743.

Chains of the proteins cited; added tags and fusions are not shown. Lines headed by an entry give the natural chain unless they say otherwise; changes in a name come on top.
UniProt P35573: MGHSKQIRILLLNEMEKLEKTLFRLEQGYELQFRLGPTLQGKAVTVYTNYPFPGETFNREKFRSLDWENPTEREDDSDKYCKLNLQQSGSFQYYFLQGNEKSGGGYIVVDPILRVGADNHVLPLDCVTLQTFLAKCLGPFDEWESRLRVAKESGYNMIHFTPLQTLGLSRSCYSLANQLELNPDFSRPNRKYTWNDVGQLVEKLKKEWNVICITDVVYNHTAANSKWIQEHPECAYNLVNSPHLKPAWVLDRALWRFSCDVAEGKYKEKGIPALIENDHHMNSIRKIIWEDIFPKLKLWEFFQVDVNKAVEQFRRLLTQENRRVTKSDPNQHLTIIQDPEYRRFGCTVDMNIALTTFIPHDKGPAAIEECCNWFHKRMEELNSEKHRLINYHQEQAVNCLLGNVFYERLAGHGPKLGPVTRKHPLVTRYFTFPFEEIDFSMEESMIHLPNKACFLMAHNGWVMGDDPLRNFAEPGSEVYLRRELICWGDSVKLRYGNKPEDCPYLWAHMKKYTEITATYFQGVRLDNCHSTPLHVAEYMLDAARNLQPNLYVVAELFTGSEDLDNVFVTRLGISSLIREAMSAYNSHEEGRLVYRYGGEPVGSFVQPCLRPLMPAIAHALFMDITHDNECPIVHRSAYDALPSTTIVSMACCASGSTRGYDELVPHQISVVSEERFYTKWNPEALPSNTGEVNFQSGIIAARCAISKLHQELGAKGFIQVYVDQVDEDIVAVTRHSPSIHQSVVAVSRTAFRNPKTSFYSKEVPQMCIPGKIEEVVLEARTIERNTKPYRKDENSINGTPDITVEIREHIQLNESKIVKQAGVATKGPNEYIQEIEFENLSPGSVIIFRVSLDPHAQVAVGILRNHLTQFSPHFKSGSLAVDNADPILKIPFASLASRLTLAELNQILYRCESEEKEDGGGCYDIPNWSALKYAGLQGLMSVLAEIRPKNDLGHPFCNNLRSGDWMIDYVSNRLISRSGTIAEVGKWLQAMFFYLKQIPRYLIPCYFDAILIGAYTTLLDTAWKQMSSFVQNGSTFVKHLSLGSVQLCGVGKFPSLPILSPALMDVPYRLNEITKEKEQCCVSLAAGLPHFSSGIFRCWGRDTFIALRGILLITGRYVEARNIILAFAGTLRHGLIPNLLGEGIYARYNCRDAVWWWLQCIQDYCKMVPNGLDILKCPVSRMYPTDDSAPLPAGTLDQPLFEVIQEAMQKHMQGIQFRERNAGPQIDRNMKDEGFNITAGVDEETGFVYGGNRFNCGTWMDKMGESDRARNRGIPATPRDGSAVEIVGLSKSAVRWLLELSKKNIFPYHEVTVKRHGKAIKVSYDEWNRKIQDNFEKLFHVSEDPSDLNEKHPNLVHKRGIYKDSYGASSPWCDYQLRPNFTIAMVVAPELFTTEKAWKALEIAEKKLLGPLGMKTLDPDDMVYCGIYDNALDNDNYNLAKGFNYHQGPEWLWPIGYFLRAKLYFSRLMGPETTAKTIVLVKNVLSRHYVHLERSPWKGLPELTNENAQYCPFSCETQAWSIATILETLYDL
UniProt P30405: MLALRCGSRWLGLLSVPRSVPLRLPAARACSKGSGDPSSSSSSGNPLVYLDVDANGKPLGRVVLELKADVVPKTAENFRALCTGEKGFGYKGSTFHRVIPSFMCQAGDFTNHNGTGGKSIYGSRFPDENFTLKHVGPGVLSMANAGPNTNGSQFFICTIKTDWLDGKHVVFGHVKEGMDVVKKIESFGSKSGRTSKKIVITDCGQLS
UniProt P33176: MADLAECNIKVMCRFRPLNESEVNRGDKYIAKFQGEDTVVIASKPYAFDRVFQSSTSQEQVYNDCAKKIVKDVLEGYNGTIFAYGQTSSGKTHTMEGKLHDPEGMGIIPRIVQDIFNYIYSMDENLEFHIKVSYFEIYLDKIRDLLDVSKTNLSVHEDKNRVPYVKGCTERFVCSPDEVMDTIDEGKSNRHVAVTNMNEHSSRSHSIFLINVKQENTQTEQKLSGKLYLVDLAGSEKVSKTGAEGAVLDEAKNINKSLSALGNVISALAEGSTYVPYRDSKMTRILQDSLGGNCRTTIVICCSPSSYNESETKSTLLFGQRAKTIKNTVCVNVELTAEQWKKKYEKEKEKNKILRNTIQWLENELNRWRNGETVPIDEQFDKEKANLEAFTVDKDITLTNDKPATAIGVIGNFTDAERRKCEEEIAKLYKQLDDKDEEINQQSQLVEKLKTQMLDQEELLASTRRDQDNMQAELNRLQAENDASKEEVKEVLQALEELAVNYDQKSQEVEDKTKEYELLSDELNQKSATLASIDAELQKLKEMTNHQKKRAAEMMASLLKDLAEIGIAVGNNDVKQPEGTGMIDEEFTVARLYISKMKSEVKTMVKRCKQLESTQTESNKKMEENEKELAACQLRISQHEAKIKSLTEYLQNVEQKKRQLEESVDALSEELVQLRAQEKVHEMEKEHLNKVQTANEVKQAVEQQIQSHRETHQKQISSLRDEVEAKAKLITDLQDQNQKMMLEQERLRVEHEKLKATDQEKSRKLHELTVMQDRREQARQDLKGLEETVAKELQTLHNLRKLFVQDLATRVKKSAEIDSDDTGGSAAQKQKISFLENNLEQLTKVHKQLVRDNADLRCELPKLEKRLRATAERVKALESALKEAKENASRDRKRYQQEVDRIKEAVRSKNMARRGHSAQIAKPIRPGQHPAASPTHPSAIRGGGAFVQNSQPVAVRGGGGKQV
UniProt P49368: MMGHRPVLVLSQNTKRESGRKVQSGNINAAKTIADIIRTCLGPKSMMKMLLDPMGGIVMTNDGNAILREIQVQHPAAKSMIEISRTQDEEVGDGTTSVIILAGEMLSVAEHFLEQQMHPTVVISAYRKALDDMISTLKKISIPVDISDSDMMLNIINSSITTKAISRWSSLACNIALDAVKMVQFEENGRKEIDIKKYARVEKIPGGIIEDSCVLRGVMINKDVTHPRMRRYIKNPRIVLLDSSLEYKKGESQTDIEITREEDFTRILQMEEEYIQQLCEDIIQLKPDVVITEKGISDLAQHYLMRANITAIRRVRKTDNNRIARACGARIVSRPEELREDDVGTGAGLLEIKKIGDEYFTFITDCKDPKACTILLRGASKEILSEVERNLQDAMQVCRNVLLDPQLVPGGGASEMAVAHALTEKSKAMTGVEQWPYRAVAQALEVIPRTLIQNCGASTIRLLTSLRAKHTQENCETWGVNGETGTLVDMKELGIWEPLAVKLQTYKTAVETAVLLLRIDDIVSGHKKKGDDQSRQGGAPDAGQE
UniProt P45974: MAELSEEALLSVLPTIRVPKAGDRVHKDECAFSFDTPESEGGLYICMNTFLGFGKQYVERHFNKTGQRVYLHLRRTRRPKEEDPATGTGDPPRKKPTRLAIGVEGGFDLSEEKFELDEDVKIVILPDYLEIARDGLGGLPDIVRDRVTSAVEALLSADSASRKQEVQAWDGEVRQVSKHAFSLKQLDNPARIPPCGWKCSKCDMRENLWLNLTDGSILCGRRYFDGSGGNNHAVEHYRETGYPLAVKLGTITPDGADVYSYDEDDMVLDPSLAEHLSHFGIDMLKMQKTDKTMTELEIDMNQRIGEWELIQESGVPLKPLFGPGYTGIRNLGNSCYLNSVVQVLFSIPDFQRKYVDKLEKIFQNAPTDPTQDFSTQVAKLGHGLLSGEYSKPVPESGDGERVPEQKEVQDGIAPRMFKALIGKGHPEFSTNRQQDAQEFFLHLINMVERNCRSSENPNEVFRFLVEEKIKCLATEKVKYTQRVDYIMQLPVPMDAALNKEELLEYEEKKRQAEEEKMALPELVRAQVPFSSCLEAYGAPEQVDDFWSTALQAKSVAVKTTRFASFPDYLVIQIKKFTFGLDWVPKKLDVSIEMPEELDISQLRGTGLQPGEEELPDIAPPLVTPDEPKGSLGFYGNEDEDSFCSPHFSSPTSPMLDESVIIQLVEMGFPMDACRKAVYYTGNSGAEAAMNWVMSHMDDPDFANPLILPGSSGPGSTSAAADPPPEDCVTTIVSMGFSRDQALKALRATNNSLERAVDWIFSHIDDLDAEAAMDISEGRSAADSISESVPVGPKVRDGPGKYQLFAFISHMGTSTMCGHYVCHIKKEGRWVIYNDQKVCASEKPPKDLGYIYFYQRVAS
UniProt P32322: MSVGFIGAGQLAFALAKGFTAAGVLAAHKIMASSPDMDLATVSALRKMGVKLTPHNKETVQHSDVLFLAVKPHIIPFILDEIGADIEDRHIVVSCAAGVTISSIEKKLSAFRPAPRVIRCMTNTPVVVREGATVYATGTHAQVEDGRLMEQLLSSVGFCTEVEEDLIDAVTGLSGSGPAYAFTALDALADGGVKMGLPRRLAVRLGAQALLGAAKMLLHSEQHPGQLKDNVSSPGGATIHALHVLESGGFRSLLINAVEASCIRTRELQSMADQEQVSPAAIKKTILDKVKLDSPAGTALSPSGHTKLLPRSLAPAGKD
UniProt P41743, whole entry: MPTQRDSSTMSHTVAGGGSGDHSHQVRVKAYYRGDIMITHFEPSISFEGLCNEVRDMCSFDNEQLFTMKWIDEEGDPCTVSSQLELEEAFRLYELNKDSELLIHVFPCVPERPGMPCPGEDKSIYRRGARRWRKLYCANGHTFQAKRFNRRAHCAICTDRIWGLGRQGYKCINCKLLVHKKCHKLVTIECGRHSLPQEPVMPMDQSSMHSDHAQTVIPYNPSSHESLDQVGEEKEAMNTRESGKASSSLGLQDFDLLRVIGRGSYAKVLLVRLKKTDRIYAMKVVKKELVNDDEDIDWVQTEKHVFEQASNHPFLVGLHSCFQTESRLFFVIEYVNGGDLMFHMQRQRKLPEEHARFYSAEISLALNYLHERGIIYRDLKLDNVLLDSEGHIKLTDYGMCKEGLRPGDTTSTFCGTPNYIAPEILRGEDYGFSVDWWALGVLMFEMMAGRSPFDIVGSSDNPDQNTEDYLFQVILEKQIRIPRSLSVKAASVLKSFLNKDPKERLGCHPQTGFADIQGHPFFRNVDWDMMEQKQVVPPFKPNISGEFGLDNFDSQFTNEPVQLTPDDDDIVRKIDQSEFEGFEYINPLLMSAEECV
UniProt P31930: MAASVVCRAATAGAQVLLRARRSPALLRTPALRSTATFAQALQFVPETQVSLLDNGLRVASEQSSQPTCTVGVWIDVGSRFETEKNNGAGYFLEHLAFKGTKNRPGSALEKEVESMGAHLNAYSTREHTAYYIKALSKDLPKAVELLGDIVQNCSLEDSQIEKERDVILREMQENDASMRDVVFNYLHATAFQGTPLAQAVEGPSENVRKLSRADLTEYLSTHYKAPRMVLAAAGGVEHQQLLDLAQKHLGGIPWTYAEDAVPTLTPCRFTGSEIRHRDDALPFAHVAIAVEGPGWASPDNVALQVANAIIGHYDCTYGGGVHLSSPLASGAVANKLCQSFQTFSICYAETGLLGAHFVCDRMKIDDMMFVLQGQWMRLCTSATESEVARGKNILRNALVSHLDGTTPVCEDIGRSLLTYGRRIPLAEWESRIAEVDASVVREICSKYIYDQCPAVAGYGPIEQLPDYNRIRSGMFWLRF
UniProt P49588, whole entry: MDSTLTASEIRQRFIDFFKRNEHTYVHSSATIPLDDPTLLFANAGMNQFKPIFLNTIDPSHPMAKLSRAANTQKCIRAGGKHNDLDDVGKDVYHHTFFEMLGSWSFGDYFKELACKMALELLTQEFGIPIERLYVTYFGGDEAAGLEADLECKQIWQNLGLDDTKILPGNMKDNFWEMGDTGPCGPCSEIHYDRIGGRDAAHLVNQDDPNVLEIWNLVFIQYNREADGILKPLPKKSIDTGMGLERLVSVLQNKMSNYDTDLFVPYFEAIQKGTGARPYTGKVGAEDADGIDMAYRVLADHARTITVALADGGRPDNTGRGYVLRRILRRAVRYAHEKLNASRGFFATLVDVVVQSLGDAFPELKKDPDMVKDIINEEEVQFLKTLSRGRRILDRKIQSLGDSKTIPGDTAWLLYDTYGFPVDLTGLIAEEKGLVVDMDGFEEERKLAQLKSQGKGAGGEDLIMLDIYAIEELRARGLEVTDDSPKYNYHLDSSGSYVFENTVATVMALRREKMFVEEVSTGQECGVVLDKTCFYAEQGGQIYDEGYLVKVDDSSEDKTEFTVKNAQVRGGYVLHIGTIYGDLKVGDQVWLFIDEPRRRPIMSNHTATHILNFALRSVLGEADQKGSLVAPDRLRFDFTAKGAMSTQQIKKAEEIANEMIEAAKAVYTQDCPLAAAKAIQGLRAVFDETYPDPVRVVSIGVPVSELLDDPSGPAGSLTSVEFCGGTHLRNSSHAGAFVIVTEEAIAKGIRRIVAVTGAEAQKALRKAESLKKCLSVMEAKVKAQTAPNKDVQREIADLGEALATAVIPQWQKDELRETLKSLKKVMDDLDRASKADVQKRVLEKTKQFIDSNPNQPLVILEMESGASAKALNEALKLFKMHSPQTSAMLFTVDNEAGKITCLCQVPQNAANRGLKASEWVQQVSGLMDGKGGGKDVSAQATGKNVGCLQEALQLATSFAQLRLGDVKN

± gives the standard deviation of the averaged measurements. The list shows a part of the results.

Compound in the assay: Nc1nc2c(ncn2[C@@H]2O[C@H](COP(=O)(O)OP(=O)(O)OP(=O)(O)O)[C@@H](O)[C@H]2O)c(=O)[nH]1 [guanosine triphosphate]
Description: NP40-soluble protein abundance relative to vehicle (solubility fold change) (ratio); higher = more soluble protein in presence of GTP. The procedure, abridged: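 Jurkat crude lysate prepared with a Dounce homogeniser was treated at eight concentrations spanning 0.1 to 10 mM, 10 min at room temperature then 3 min at 37 °C. Solubilisation with 0.8% NP40 and benzonase and ultracentrifugation preceded TMT labelling of the supernatant for LC-MS/MS. Fold change against the detergent-processed vehicle was determined per replicate from vsn-normalised intensities, across three independent experiments.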

With ATP6V1A (UniProt P38606), the NP40-soluble protein abundance reads like this: (concentration: 0.1mM) 1.02 ± 0.021; (concentration: 0.5mM) 1.07 ± 0.038; (concentration: 1mM) 0.966 ± 0.043; (concentration: 2mM) 0.99 ± 0.078; (concentration: 4mM) 0.961 ± 0.074; (concentration: 6mM) 0.966 ± 0.094. Besides, the NP40-soluble protein abundance amounted to 0.925 ± 0.034 (concentration: 8mM) and 0.908 ± 0.043 (concentration: 10mM).

With UniProt P38398 and related entries, the NP40-soluble protein abundance stood at 0.971 ± 0.076 (concentration: 0.1mM); 0.984 ± 0.061 (concentration: 0.5mM); 0.977 ± 0.077 (concentration: 1mM); 0.998 ± 0.081 (concentration: 2mM); 0.931 ± 0.079 (concentration: 4mM); 1.02 ± 0.096 (concentration: 6mM). In addition, the NP40-soluble protein abundance is 1.01 ± 0.069 (concentration: 8mM) and 1.04 ± 0.12 (concentration: 10mM).

On to AGL (UniProt P35573), for which the NP40-soluble protein abundance is, setting by setting: (concentration: 0.1mM) 1.11 ± 0.13; (concentration: 0.5mM) 1.18 ± 0.23; (concentration: 1mM) 1.09 ± 0.19; (concentration: 2mM) 1.21 ± 0.31; (concentration: 4mM) 1.29 ± 0.37; (concentration: 6mM) 1.24 ± 0.32. The NP40-soluble protein abundance was 1.18 ± 0.28 (concentration: 8mM) and 1.26 ± 0.34 (concentration: 10mM).

As to ARL3 (UniProt P36405), the NP40-soluble protein abundance runs as follows: (concentration: 0.1mM) 0.956 ± 0.022; (concentration: 0.5mM) 0.94 ± 0.045; (concentration: 1mM) 0.891 ± 0.023; (concentration: 2mM) 0.883 ± 0.063; (concentration: 4mM) 0.868 ± 0.024; (concentration: 6mM) 0.882 ± 0.017. The NP40-soluble protein abundance runs as follows: (concentration: 8mM) 0.838 ± 0.022; (concentration: 10mM) 0.838 ± 0.036.

Turning to PPIF (UniProt P30405), the NP40-soluble protein abundance runs as follows: (concentration: 0.1mM) 0.881 ± 0.08; (concentration: 0.5mM) 0.902 ± 0.067; (concentration: 1mM) 0.863 ± 0.064; (concentration: 2mM) 0.876 ± 0.078; (concentration: 4mM) 0.853 ± 0.091; (concentration: 6mM) 0.868 ± 0.087. The NP40-soluble protein abundance (concentration: 8mM) was 0.836 ± 0.11 and the NP40-soluble protein abundance (concentration: 10mM) was 0.887 ± 0.079.

As for UniProt P48059-5, the NP40-soluble protein abundance is, setting by setting: (concentration: 0.1mM) 1.04 ± 0.071; (concentration: 0.5mM) 1.01 ± 0.077; (concentration: 1mM) 0.969 ± 0.041; (concentration: 2mM) 0.98 ± 0.092; (concentration: 4mM) 0.985 ± 0.084; (concentration: 6mM) 0.954 ± 0.072. Also, the NP40-soluble protein abundance (concentration: 8mM) was 0.97 ± 0.047 and the NP40-soluble protein abundance (concentration: 10mM) stood at 0.958 ± 0.066.

For the target HPCAL1 (UniProt P37235), the NP40-soluble protein abundance came to 0.944 ± 0.045 (concentration: 0.1mM); 0.946 ± 0.056 (concentration: 0.5mM); 0.932 ± 0.024 (concentration: 1mM); 0.957 ± 0.036 (concentration: 2mM); 0.909 ± 0.083 (concentration: 4mM); 0.922 ± 0.056 (concentration: 6mM). In addition, the NP40-soluble protein abundance by setting is: (concentration: 8mM) 0.907 ± 0.098; (concentration: 10mM) 0.931 ± 0.088.

In the case of KIF5B (UniProt P33176), the NP40-soluble protein abundance (concentration: 0.1mM) was 0.951 ± 0.074; the NP40-soluble protein abundance (concentration: 0.5mM) worked out at 0.986 ± 0.073; the NP40-soluble protein abundance (concentration: 1mM) came out at 0.965 ± 0.074; the NP40-soluble protein abundance (concentration: 2mM) stood at 0.938 ± 0.081; the NP40-soluble protein abundance (concentration: 4mM) was 0.933 ± 0.067; the NP40-soluble protein abundance (concentration: 6mM) is 0.963 ± 0.077. The NP40-soluble protein abundance was found to be 0.971 ± 0.073 (concentration: 8mM) and 0.959 ± 0.079 (concentration: 10mM).

As for CCT3 (UniProt P49368), the NP40-soluble protein abundance was 0.995 ± 0.03 (concentration: 0.1mM); 1.07 ± 0.1 (concentration: 0.5mM); 1.08 ± 0.18 (concentration: 1mM); 1.1 ± 0.24 (concentration: 2mM); 1.11 ± 0.24 (concentration: 4mM); 1.06 ± 0.22 (concentration: 6mM). In addition, the NP40-soluble protein abundance came to 1.08 ± 0.21 (concentration: 8mM) and 1.05 ± 0.23 (concentration: 10mM).

As for UniProt P45974 and related entries, the NP40-soluble protein abundance is 1 ± 0.052 (concentration: 0.1mM); 0.989 ± 0.047 (concentration: 0.5mM); 0.992 ± 0.04 (concentration: 1mM); 0.94 ± 0.038 (concentration: 2mM); 0.931 ± 0.051 (concentration: 4mM); 0.924 ± 0.046 (concentration: 6mM). In addition, the NP40-soluble protein abundance came to 0.941 ± 0.065 (concentration: 8mM) and 0.897 ± 0.062 (concentration: 10mM).

As for UniProt P32322 and related entries, the NP40-soluble protein abundance reads like this: (concentration: 0.1mM) 0.991 ± 0.052; (concentration: 0.5mM) 0.988 ± 0.034; (concentration: 1mM) 1 ± 0.083; (concentration: 2mM) 1.02 ± 0.081; (concentration: 4mM) 1.01 ± 0.06; (concentration: 6mM) 1.01 ± 0.1. Further, the NP40-soluble protein abundance stood at 1.03 ± 0.085 (concentration: 8mM) and 1.01 ± 0.093 (concentration: 10mM).

For the target UniProt P41743, the NP40-soluble protein abundance was found to be 1.06 ± 0.17 (concentration: 0.1mM); 1.04 ± 0.087 (concentration: 0.5mM); 0.914 ± 0.077 (concentration: 1mM); 0.924 ± 0.07 (concentration: 2mM); 0.924 ± 0.13 (concentration: 4mM); 0.948 ± 0.11 (concentration: 6mM). Also, the NP40-soluble protein abundance by setting is: (concentration: 8mM) 0.892 ± 0.12; (concentration: 10mM) 0.902 ± 0.038.

As for UQCRC1 (UniProt P31930), the NP40-soluble protein abundance was found to be 0.996 ± 0.032 (concentration: 0.1mM); 1.03 ± 0.049 (concentration: 0.5mM); 0.994 ± 0.05 (concentration: 1mM); 0.994 ± 0.046 (concentration: 2mM); 0.995 ± 0.082 (concentration: 4mM); 0.982 ± 0.072 (concentration: 6mM). Besides, the NP40-soluble protein abundance is, setting by setting: (concentration: 8mM) 1 ± 0.081; (concentration: 10mM) 0.977 ± 0.099.

ACADSB (UniProt P45954): the NP40-soluble protein abundance came out at 1.02 ± 0.011 (concentration: 0.1mM); 1.01 ± 0.021 (concentration: 0.5mM); 0.9803 ± 0.0081 (concentration: 1mM); 0.975 ± 0.033 (concentration: 2mM); 0.98 ± 0.023 (concentration: 4mM); 0.948 ± 0.037 (concentration: 6mM). For the same target, the NP40-soluble protein abundance turned out to be 0.915 ± 0.03 (concentration: 8mM) and 0.894 ± 0.011 (concentration: 10mM).

With UniProt P49588 and related entries, the NP40-soluble protein abundance (concentration: 0.1mM) amounted to 0.95 ± 0.017; the NP40-soluble protein abundance (concentration: 0.5mM) was 0.981 ± 0.025; the NP40-soluble protein abundance (concentration: 1mM) was 0.928 ± 0.032; the NP40-soluble protein abundance (concentration: 2mM) amounted to 0.895 ± 0.034; the NP40-soluble protein abundance (concentration: 4mM) was 0.876 ± 0.043; the NP40-soluble protein abundance (concentration: 6mM) is 0.905 ± 0.041. For the same target, the NP40-soluble protein abundance reads like this: (concentration: 8mM) 0.877 ± 0.04; (concentration: 10mM) 0.848 ± 0.052.
